The record followed here is publication PMC7862700.

Only a part is listed here, and it is no random draw. At the low end of the ranking the order means little.

For the experiment, the target named is T1, EHF (UniProt Q9NZC4).
T1 sequence: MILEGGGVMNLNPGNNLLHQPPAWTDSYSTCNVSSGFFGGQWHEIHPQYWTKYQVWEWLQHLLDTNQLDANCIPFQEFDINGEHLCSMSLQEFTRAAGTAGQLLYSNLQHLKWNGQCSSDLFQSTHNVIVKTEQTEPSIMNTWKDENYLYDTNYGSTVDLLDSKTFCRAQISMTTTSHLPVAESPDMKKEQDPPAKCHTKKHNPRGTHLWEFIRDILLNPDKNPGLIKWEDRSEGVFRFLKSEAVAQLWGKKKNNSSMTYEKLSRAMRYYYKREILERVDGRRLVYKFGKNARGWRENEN
In words: DAPPL (digital affinity profiling via proximity ligation, sequencing). The settings on record: 10 mM Tris-HCl pH 7.5, 50 mM NaCl, 1 mM DTT, 4% glycerol, room temperature, 30 min; GST-TFs on glutathione beads, 16-mer random dsDNA library, 0.1% …; high values mean tight binding; double strand, one strand shown; scale: fold enrichment (6-mer frequency, TF over GST control).
Sequence CTAACG came in with a binding signal of 1.13.

In turn, TCCGAC displayed a binding signal of 1.46.

CGGCTC had a binding signal of 1.31.

For the sequence GAACAC, the binding signal turned out to be 1.12.

Sequence GACATC returned a binding signal of 1.35.

Regarding AAACGG, the binding signal stood at 1.26.

With ACAATC, the binding signal worked out at 1.13.

In turn, GGAACA gave a binding signal of 1.12.

In the case of AGGAAA, the binding signal amounted to 1.63.

Sequence TGCGCG had a binding signal of 1.16.

Consider CTGGCC, for which the binding signal was determined as 1.13.

The sequence TGTGTT showed a binding signal of 1.09.

In turn, TGTGGA yielded a binding signal of 0.999.

In turn, AAAGCG had a binding signal of 1.1.

In the case of TCTTAC, the binding signal was 1.2.

The sequence AAACCA had a binding signal of 1.17.

The sequence ACTCTT came in with a binding signal of 1.2.

Turning to AGGTAT, the binding signal came out at 0.978.

As for CATCTT, the binding signal is 1.2.

TATCCG returned a binding signal of 2.48.

For GTCTTA, the binding signal amounted to 1.08.

For CCGATC, the binding signal came to 1.24.

CAACAT showed a binding signal of 1.23.

In the case of CCATAA, the binding signal stood at 1.05.

For the sequence CCTATT, the binding signal stood at 1.64.

CTACGA registered a binding signal of 1.25.

On to CCCACA, for which the binding signal stood at 1.12.

GTATAT registered a binding signal of 1.2.

In the case of CCCTGG, the binding signal came to 1.11.

Sequence AGTTCC returned a binding signal of 2.11.

As for GCCTAT, the binding signal stood at 1.17.

CGCGTC displayed a binding signal of 1.25.

Take CACATT: the binding signal was 1.23.

Turning to CTTCCT, the binding signal is 3.28.

With TATTAA, the binding signal was 1.09.

CTTGAC came in with a binding signal of 1.14.

Sequence ATTAAT yielded a binding signal of 1.2.

In turn, TCTTAA returned a binding signal of 1.09.
